According to PubChem BioAssay AID743255 (National Center for Advancing Translational Sciences (NCATS), 2014):
Screen size: about 390,000 compounds; about 910 (0.23%) were called active. The inconclusive results got no clear call from the source; some entries with a clear call stand among them for comparison. Calls follow the shape of the dose curve; as a rule, active = well fitted inhibition curve with a large enough effect; inconclusive = small, poorly fitted or top-dose-only effect; inactive = no such curve, though single readings can be large or run the other way. A potency beside an inconclusive call is a rough fit, not a confirmed value.

The chains behind the UniProt entries cited, without tags or fusion partners. Where a name states a change or a piece, a line headed by the entry shows the natural chain unless it says otherwise.
UniProt O94782: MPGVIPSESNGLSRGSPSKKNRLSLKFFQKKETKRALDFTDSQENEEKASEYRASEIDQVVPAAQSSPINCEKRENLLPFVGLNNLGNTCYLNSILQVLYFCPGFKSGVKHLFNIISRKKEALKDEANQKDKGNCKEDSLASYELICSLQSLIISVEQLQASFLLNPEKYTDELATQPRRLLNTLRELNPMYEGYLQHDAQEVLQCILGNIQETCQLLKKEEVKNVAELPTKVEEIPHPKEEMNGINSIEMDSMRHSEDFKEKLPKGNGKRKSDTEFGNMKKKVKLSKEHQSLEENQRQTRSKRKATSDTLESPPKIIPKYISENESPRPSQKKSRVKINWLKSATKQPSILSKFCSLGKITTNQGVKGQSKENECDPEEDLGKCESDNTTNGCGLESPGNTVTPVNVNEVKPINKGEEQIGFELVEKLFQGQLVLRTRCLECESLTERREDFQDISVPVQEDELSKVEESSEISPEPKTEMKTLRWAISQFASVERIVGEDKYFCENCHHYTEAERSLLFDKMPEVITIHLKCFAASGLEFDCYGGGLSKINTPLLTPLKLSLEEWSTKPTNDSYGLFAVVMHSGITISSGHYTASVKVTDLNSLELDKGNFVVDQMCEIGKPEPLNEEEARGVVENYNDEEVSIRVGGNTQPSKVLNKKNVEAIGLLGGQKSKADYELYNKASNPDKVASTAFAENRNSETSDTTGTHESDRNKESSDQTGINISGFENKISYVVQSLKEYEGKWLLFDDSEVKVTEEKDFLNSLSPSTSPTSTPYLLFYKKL

Target: Ubiquitin carboxyl-terminal hydrolase 1 (Homo sapiens) (UniProt O94782)
Assay: Inhibitors of USP1/UAF1: Primary Screen; also: nearly all actives have a fitted effect of over 60% in size
Settings: recombinant USP1/UAF1, Ub-Rhodamine cleavage fluorescence; activity change, negative = inhibition: at 57.1 µM (top of the series)
How it was run: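 USP1/UAF1 complex (1 nM) preincubated 15 min at room temperature with compound, then Ub-Rho substrate (150 nM final) added. Kinetic fluorescence at 480/540 nm over 6 reads at 60 s intervals; 50 mM HEPES pH 7.8, 0.5 mM EDTA, 0.1 mg/ml BSA, 1 mM TCEP, 0.01% Tween-20.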
% is scaled to controls: 0 for no effect and ±100 for the full control effect; potency is read from the fitted curve at half-maximal effect.

Potency, inactive:
Cn1ccnc1Sc1ccc(C=O)cc1[N+](=O)[O-]
CC1=NN(c2ccccc2)C(=O)/C1=C/c1c(O)n(-c2ccc(F)c(Cl)c2)[nH]c1=O
CN1CCc2c(sc(NC(=O)CS(=O)(=O)c3ccc(F)cc3)c2C(N)=O)C1
CC(C)C(=O)NC(=S)Nc1ccccc1N1CCN(C(=O)c2ccc(Cl)cc2)CC1
CN(C)c1cccc(C(=O)N(C)C2CCCN(Cc3ccccc3F)C2)c1 (stereo unspecified)
Cc1ccc2nc(-c3ccc(Cl)s3)c(Nc3ccc4c(c3)OCCO4)n2c1
CCC(C(=O)N1CCN(c2ncccn2)CC1)c1ccccc1 (stereo unspecified)
CCOc1ccc(C(=O)NCCSc2c(C)[nH]c3ccccc23)cc1OCC
COc1ccc(Nc2nc3ccc(Cl)cc3nc2-n2nc(C)cc2C)cc1
CC(C)Cc1nn2c(=O)cc(COC(=O)c3ccc(NC(=O)C4CCCCC4)cc3)nc2s1
COc1ccc(NC(=O)c2cc(S(=O)(=O)N3CCCC3)ccc2OC)cc1
Cc1cc(=O)[nH]c(SCC(=O)C23CC4CC(CC(C4)C2)C3)c1C#N
Cc1ccc(N2C(=O)C(Cl)=C(N3CCOCC3)C2=O)cc1Cl
CC12CCC3C(=CCc4cc(O)ccc43)C1CC(=NO)C2O (stereo unspecified)
COc1ccc(CCNC(=O)c2nn(C)cc2Cl)cc1
O=C1C=C(Nc2ccc(O)cc2)C(=O)c2ccccc21
COc1cccc(-n2nnnc2SCC(=O)Nc2cccc(NC(C)=O)c2)c1
COc1ccc(CCNc2ncccc2C#N)cc1OC
O=S(=O)(c1ccc(Cl)cc1)c1nc(-c2cccc(Br)c2)oc1NCc1ccccc1

Potency, active:
O=C1NC(=O)C2(N1)C(=O)c1cccc3cccc2c13 (stereo unspecified) 35.5 µM
CCOC(=O)c1c(NC(=O)/C=C/C(=O)O)sc(C)c1-c1ccc(C(C)(C)C)cc1 31.6 µM

Potency, inconclusive:
CC(=O)C1(O)C(C)CC2C3CCC4CC(O)CCC4(C)C3=CCC21C (stereo unspecified) 44.7 µM [inhibitor, partial curve]
NC(=O)c1ccc(Nc2nnc(-c3ccc(O)cc3)c3ccccc23)cc1 28.2 µM [inhibitor, single point]
O=[N+]([O-])c1cc(C(F)(F)F)ccc1N1CCCC(O)C1 (stereo unspecified) 28.2 µM [inhibitor, single point]
Cc1ccc(-n2nc(C)c3c2OC(N)=C(C#N)C3c2ccc(C)o2)cc1 (stereo unspecified) 35.5 µM [inhibitor, partial curve]
COc1cccc(NC(=O)C2CCN(S(=O)(=O)c3c(C)noc3C)CC2)c1 4.47 µM [inhibitor, full curve]
O=C(CCCN1C(=O)/C(=C/c2ccccc2)SC1=S)Nc1ccccc1O 1.41 µM [inhibitor, full curve]
CCCCC[C@@H](/C=C/C1C(=O)C=C[C@H]1C/C=C\CCCC(=O)OC)OC(C)=O (stereo partly specified) 39.8 µM [inhibitor, partial curve]
CC(NC(=O)Cc1ccc(F)cc1)C(c1cccs1)N1CCN(C)CC1 (stereo unspecified) 25.1 µM [inhibitor, single point]
Cc1ccc(CNC(=O)c2ccc(N3CCCC3)c(NC(=O)Nc3ccc(F)c(Cl)c3)c2)cc1 0.316 µM [inhibitor, full curve, poor fit]
Nc1nn(-c2ccccc2)c(N)c1N=Nc1ccc2c(c1)OCO2 7.94 µM [inhibitor, partial curve]
COc1ccc(N=C(C)C2=C(O)CSC2=O)cc1 0.447 µM [inhibitor, full curve, poor fit]
Cc1ccc2c(c1)c1nc3ccccc3nc1n2C 31.6 µM [inhibitor, partial curve]
O=C(c1ccco1)N(Cc1ccccc1)c1cccc([N+](=O)[O-])c1 8.91 µM [inhibitor, single point]
CCN(CC)c1ccc(/C=N/NC(=O)c2cccc(S(=O)(=O)N3CCOCC3)c2)c(O)c1 28.2 µM [inhibitor, partial curve]
COc1ccccc1-n1nc(C(=O)O)c2ccccc2c1=O 7.08 µM [inhibitor, partial curve, poor fit]
O=C(NCCc1csc(-c2ccc(C(F)(F)F)cc2)n1)c1cccs1 50.1 µM [inhibitor, partial curve, poor fit]
Cc1ccn2c(Nc3ccc4c(c3)OCCO4)c(-c3ccccc3O)nc2c1 0.282 µM [inhibitor, full curve, poor fit]
Cc1ccc(S(=O)(=O)n2nc(C)c(S(=O)(=O)N3CCCCCC3)c2C)cc1C 44.7 µM [inhibitor, partial curve, poor fit]
COc1ccc(C(C(=O)Nc2ccc(F)cc2)N(C(=O)Cn2nnc3ccccc32)C2CC2)cc1 (stereo unspecified) 39.8 µM [inhibitor, partial curve, poor fit]
COc1ccccc1CNC(=O)c1c(N)n(CCCN2CCOCC2)c2nc3ccccc3nc12 17.8 µM [inhibitor, partial curve]
CCOc1cccc(CC(=O)N2CCc3c([nH]c4ccc(OC)cc34)C2c2ccc(F)cc2)c1OCC (stereo unspecified) 44.7 µM [inhibitor, partial curve]
FC(F)Sc1ccc(NC(=S)NC(c2ccccc2)c2ccccc2)cc1 89.1 µM [inhibitor, partial curve, poor fit]
O=C(CN(C(=O)Cn1nnc(-c2cccs2)n1)c1ccc2c(c1)OCCO2)NCc1ccccc1 8.91 µM [inhibitor, full curve, poor fit]
Cc1ccc(C2C3CSCC=C3C(C#N)=C(N)C2(C#N)C#N)cc1 (stereo unspecified) 35.5 µM [inhibitor, partial curve, poor fit]
C=CCC(COCc1ccccc1)NS(=O)(=O)c1ccccc1Br (stereo unspecified) 44.7 µM [inhibitor, partial curve]
COc1ccc(-c2c(C)nn3c(N4CCCCCC4)cc(C)nc23)cc1OC 6.31 µM [inhibitor, full curve]
Cc1ccc([C@@H]2CC=C(C(=O)O)[C@H](c3ccc(Br)cc3)N2S(=O)(=O)c2ccc(C)cc2)cc1 70.8 µM [inhibitor, partial curve, poor fit]
CCCCC1=CC2=CC(=O)C(C)(OC(=O)CC)C(=O)C2=CN1CCCCO (stereo unspecified) 28.2 µM [inhibitor, partial curve]
O=C(OCc1ccccc1)N1CCC2CC1c1cc(N3CCCCC3)ccc12 (stereo unspecified) 1 µM [inhibitor, full curve, poor fit]
Cc1c(O)c(=O)c2ccccc2n1C 0.112 µM [inhibitor, full curve, poor fit]
CC(C)(C)OC(=O)C[C@@H]1C/C=C\C[C@@H](CC(=O)N[C@H](CO)Cc2ccccc2)C(=O)N2CCC[C@H]2COC1=O 7.08 µM [inhibitor, partial curve]
O=C1CSC2(C(=O)N(Cc3ccccc3)c3ccccc32)N1c1cccc(F)c1 (stereo unspecified) 25.1 µM [inhibitor, partial curve]
COc1cc(-c2nc(-c3ccc4c(c3)[nH]c(=O)n4C)no2)cc(OC)c1OC 0.251 µM [inhibitor, full curve, poor fit]
CCOc1ccc(CCNC(=O)C2CCN(Cc3nc(-c4ccc(OC)c(OC)c4)oc3C)CC2)cc1OCC 0.0708 µM [inhibitor, full curve, poor fit]
O=C(c1ccco1)N1CCN(c2nc3c(F)cc(F)cc3s2)CC1 1120 µM [inhibitor, partial curve, poor fit]
Cc1ccc(C(C[N+](=O)[O-])c2c(C)[nH]n(-c3ccccc3)c2=O)cc1 (stereo unspecified) 35.5 µM [inhibitor, partial curve]
COC(=O)c1cccc(NC(=O)NC(=O)c2ccc(Cl)cc2)c1 5.62 µM [inhibitor, partial curve]
Oc1ccc(NCc2cccc(OCc3ccc(F)cc3)c2)cc1 39.8 µM [inhibitor, partial curve]
COc1ccc(-c2nnc(SCC(=O)Nc3cc(OC)ccc3OC)nc2-c2ccc(OC)cc2)cc1 5.01 µM [inhibitor, full curve]
O=c1c2sccc2n(Cc2cc(=O)n3ccccc3n2)c(=O)n1-c1cc(F)ccc1F 0.447 µM [inhibitor, full curve, poor fit]
CCCOc1ccccc1NC(=O)c1c(-c2ccccc2)noc1C 39.8 µM [inhibitor, partial curve, poor fit]
CCc1cc(-c2n[nH]c(C)c2-c2nc(C)cs2)c(O)cc1OC 0.251 µM [inhibitor, full curve, poor fit]
CCc1ccc(S(=O)(=O)Nc2ccc(O)c3c(=O)cc(-c4ccccc4Cl)oc23)cc1 44.7 µM [inhibitor, single point]

Reprinted at random: three entries already listed.
Potency, inconclusive:
CC(C)(C)OC(=O)C[C@@H]1C/C=C\C[C@@H](CC(=O)N[C@H](CO)Cc2ccccc2)C(=O)N2CCC[C@H]2COC1=O 7.08 µM [inhibitor, partial curve]
COc1ccc(C(C(=O)Nc2ccc(F)cc2)N(C(=O)Cn2nnc3ccccc32)C2CC2)cc1 (stereo unspecified) 39.8 µM [inhibitor, partial curve, poor fit]
Cc1ccc(S(=O)(=O)n2nc(C)c(S(=O)(=O)N3CCCCCC3)c2C)cc1C 44.7 µM [inhibitor, partial curve, poor fit]

Following part:

Activity change, negative = inhibition, inconclusive:
Cc1cccc(C(=O)N2CCc3cc(CNC(=O)CSc4ccccc4)ccc32)c1 -7.04% [inhibitor]
Cc1ccc(CNC(=O)c2ccc(Nc3nc4ccccc4n4nnnc34)cc2)cc1 -28% [inhibitor]
